# Experimental data reported in the supplement of paper PMC5949888.
# Most values lie at the floor of the assay. Slopes are relative: functional sequences can read slightly below zero.
# Test system: Saccharomyces cerevisiae PS128 hsf1 delta, HSF1(1-493) fusion
# Experiment: growth estimate (transactivation domain function in HSF1 fusion, heat-shock survival) (a.u. (slope of normalised read count over time)); higher = stronger growth at 37°C, i.e. more transactivation activity
# Conditions: library: random library
row,Substance,growth estimate
1,VGAFLQQVFVM,< -0.25
2,RGLVGNLCKLSESGRDGITV,< -0.25
3,ITCLNAR,< -0.25
4,PQP,< -0.25
5,RPVTYVGHGVQVDYNTHIND,< -0.25
6,DHGLRGV,< -0.25
7,TSDPVPAELPLPGGAAWFID,< -0.25
8,GQISPHACKLRKVSLQVP,< -0.25
9,WLESHRSREVSHFSDVPIRG,< -0.25
10,LYPLRSLSKISDKA,< -0.25
11,EKGECGMQPGHAMPKE,< -0.25
12,PRWLSRVNSRTRSGLDMSWG,< -0.25
13,LRRRMTV,< -0.25
14,QIYIATTHSLAGQSSEFVKG,< -0.25
15,GSAPHDLMFRSQRVKRFQTN,< -0.25
16,VDTIPEPQTRRAIRRTSQSV,< -0.25
17,LTFRYTLPPNGVRGIPGKSE,< -0.25
18,TLYSATSGVFDCNSELLSSR,< -0.25
19,SQRDQK,< -0.25
20,IRWYASVGRTPAKSSEPRS,< -0.25
21,AGLGTISDDRVHSDSDHLGL,< -0.25
22,TVTDVQY,< -0.25
23,FRSHKRSKRGLTQSTGAIDQ,< -0.25

row,Substance,growth estimate
1,LYGSDCHYLNSASYIN,< -0.25
2,GKRKGVRARRKRIARGFDRQ,< -0.25
3,DQGLFLSVFTLLRRPEVIKQ,< -0.25
4,LKHRL,< -0.25
5,RGVFYGEGNQKCIRRARS,< -0.25
6,GSGVKTDKRPNGRNCNFVLP,< -0.25
7,VYRISVEPTNCRQEEIITVQ,< -0.25
8,WGQAARSTHTGWTA,< -0.25
9,CSVRAREKVRLDLSPLMTSD,< -0.25
10,RNWDA,< -0.25
11,CRARVPCFRAILSATKNSPG,< -0.25
12,INKCRCLNRKP,< -0.25
13,RSVNKCAVPSRVVVRVRG,< -0.25
14,CRVAEAS,< -0.25
15,VLEWDCRESTHITC,< -0.25
16,IKYSGGGSLCSSVLVSLGTV,-0.25
17,YLAPSSVLDRCVPCCFTNIG,< -0.25
18,KNEESGC,< -0.25
19,NEVGASQGHNVHYTRI,< -0.25
20,ELGPVGPKTRMESMGNSTRQ,< -0.25
21,LTAE,< -0.25
22,RGESTNRVPFRRVARASQPS,< -0.25
23,VPKWVPLHSG,< -0.25

row,Substance,growth estimate
1,PIMVSAGSLTATSERDRIT,< -0.25
2,EVCRPSRRDGRTSFST,< -0.25
3,LVRMEFRRGHARVRQSEVGS,< -0.25
4,VGLIDFAARSFRTACMGIQF,< -0.25
5,LCNVGREG,< -0.25
6,TSPERDLPTTGERSVQLVWR,< -0.25
7,TRMRDQR,< -0.25
8,AWDVTHQEDVGVAMVAPLDN,< -0.25
9,REDSPRRSGHLMDVYIVHCA,< -0.25
10,NLSNSPYRQKRLRLECSRKH,< -0.25
11,YKCAKSYLEALEIRLGRPVP,< -0.25
12,EAELGSR,< -0.25
13,KCCKGQGQLWLGISVRHQVR,< -0.25
14,HFYVAVLSPTVARSSSAHQF,< -0.25
15,KNCVFSNCDFGEYH,< -0.25
16,SVCYVPLDQWTDESV,-0.243
17,QSSYNWARGGKLTARLVYC,< -0.25
18,YGCTVHLTTLILRLGLCRVS,< -0.25
19,VGDQNSKSN,< -0.25
20,ANSTPGVADYYGPLRTGCEV,< -0.25
21,TTSLLEQGGM,< -0.25
22,GPIRPRDQLGMKGQGLAKGW,< -0.25
23,SVK,< -0.25

# Quoted from the entries so far (seven entries):
row,Substance,growth estimate
12,PRWLSRVNSRTRSGLDMSWG,< -0.25
13,LRRRMTV,< -0.25
14,QIYIATTHSLAGQSSEFVKG,< -0.25
15,GSAPHDLMFRSQRVKRFQTN,< -0.25
16,VDTIPEPQTRRAIRRTSQSV,< -0.25
17,LTFRYTLPPNGVRGIPGKSE,< -0.25
18,TLYSATSGVFDCNSELLSSR,< -0.25

# Next part.

row,Substance,growth estimate
1,WTPALRSCRANCKGCGHLHR,< -0.25
2,FTCPQSLLNLLPQYWQNMQV,< -0.25
3,SLRIHLPMRSLTLNLQMWNP,< -0.25
4,PKILLT,< -0.25
5,RQGTG,< -0.25
6,CLNTYSFP,< -0.25
7,YIPVCADAC,-0.243
8,EADTNYSPFCFGILGLHRPT,< -0.25
9,GMYVGGG,< -0.25
10,ALGTSASPVHAVF,< -0.25
11,VPYLHV,< -0.25
12,VLRGLSRLAADLFNCRWLLG,< -0.25
13,QYPV,< -0.25
14,ISVIL,< -0.25
15,VKRFTEGPSISRRSTEPQTA,< -0.25
16,PDPPDRMQHAGEVSWAITLT,< -0.25
17,IRRRFY,< -0.25
18,IDYTPAL,< -0.25
19,AGLTSHDRAVAETWLLAQRV,< -0.25
20,TMGQSSRQTT,< -0.25
21,GVPMVKGYVRTGPI,< -0.25
22,KKTL,< -0.25
23,GGFSGLYDQF,< -0.25

row,Substance,growth estimate
1,RNDLSIRVVTTKGRQGS,< -0.25
2,PGGRFSGQFEQFIHPELWRM,< -0.25
3,KNAKIVTCRGNMSGLCLTLG,< -0.25
4,FLFSMVEA,-0.189
5,PRTPVPRGKPSVP,< -0.25
6,QVAGGNLGPAVQTSRRHSST,< -0.25
7,GRRLNRRSSVELYKRAVK,< -0.25
8,LMIGGRNWPSAHANCP,< -0.25
9,SCHETDWYHPNR,-0.246
10,AASPLIGPKVSHSTRAQLHV,< -0.25
11,RAPMTAPPVNPGRSTSPILR,< -0.25
12,ELGYGMLVEELTLVQWPRRV,< -0.25
13,VWVGTRSEHRGTVIGVTHFA,< -0.25
14,GDDVLFQWRLWPLRRCLCEQ,< -0.25
15,VLSRARYESVFFTAPSRRSS,< -0.25
16,TKVMIAGSKNVIHPREACSA,< -0.25
17,RPLPRT,< -0.25
18,GWLVHDALVRLWF,< -0.25
19,ISWHREVLSASTFVNATPAS,< -0.25
20,AITPDVCVAPYTPSIPIGVQ,< -0.25
21,QKPAGRQRVKHRL,< -0.25
22,PNPLHGRARATGSLMGNTDR,< -0.25
23,GVLADCAPRRDMLKPP,< -0.25

row,Substance,growth estimate
1,FYL,< -0.25
2,CAGDASAYGNSARN,< -0.25
3,RHTDGLVRLLLRSAGPSSCS,< -0.25
4,QDLEYH,-0.138
5,PCRIACVSQRRGRLRWSVTG,< -0.25
6,RRTFGQARGNRVLGMGL,< -0.25
7,LKIARLGVTRQSRHILAF,< -0.25
8,SKCSRNRSGESLRLEGWC,< -0.25
9,VGASMSWECIIVTPAGRFEL,< -0.25
10,VFCNYPYWGQLRAIFDAQCC,-0.248
11,CVSY,< -0.25
12,LPLCRPPQGSRLRNLAEDSK,< -0.25
13,RWVI,< -0.25
14,SLSILNSKVPWGFDLGVSRT,< -0.25
15,LGGYILLRSLASSMCYN,< -0.25
16,SKRDFTRSASRVSRLLK,< -0.25
17,SPAARTH,< -0.25
18,LTHRGAPSIQL,< -0.25
19,NRDGPFTVARTLPSVRTPCF,< -0.25
20,TPSKISKSDLCSVYRGRISG,-0.25
21,GIFKRIAFFVGSSSN,< -0.25
22,GQKLAHPESA,< -0.25
23,DMNVRGE,-0.193

row,Substance,growth estimate
1,EGLL,< -0.25
2,FFAFCLNLLGPAGVVKLEFN,< -0.25
3,LCSGESIVSSL,< -0.25
4,CQPLASTSFKMKSEK,< -0.25
5,QLLSHLCD,< -0.25
6,WLVRVLRRVHFQRVNPDAFL,< -0.25
7,LVLEIGTLTFRKRRKPTRPR,< -0.25
8,GAGDLYCSMASVKSGICFLC,< -0.25
9,LVRWTTSARSI,< -0.25
10,DSARLWHWPERCLTAAVMPA,< -0.25
11,SGCLRTMFE,< -0.25
12,VRGEGRQVGWALPVYG,< -0.25
13,LLQRRY,< -0.25
14,DTIKVNRTPLLVSGPGLHTA,< -0.25
15,GRCKAQ,-0.243
16,GARRPHPSN,< -0.25
17,RHSPPYL,< -0.25
18,LAAKQSRISFASTRLVLGFG,< -0.25
19,SSESAAPTNNIKLYKGSP,< -0.25
